# Screening data, single-dose tests

Chains of the proteins cited; added tags and fusions are not shown. Residues count along the entry.
UniProt P9WFT3, whole entry: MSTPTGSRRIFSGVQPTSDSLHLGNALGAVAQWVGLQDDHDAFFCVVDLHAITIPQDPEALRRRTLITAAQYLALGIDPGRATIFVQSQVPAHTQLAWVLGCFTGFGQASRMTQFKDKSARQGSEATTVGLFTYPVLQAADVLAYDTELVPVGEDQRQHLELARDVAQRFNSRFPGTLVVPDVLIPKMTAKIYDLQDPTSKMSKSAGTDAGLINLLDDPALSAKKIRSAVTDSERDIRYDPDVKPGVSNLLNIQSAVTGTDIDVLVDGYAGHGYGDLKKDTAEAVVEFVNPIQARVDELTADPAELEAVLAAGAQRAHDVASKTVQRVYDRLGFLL
UniProt P9WPC5, whole entry: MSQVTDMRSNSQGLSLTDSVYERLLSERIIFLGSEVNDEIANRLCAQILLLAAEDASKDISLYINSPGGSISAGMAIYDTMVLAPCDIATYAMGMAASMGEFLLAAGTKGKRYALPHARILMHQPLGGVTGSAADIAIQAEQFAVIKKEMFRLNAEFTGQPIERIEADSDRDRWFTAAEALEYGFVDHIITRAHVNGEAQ
UniProt P9WPC3, whole entry partner: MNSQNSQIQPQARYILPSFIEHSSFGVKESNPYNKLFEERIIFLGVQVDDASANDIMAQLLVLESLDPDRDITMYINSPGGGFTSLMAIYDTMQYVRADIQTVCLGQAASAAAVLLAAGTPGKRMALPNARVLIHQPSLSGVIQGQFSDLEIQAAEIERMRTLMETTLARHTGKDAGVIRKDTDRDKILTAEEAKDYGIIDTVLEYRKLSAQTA
UniProt Q8IDJ8, 1-583: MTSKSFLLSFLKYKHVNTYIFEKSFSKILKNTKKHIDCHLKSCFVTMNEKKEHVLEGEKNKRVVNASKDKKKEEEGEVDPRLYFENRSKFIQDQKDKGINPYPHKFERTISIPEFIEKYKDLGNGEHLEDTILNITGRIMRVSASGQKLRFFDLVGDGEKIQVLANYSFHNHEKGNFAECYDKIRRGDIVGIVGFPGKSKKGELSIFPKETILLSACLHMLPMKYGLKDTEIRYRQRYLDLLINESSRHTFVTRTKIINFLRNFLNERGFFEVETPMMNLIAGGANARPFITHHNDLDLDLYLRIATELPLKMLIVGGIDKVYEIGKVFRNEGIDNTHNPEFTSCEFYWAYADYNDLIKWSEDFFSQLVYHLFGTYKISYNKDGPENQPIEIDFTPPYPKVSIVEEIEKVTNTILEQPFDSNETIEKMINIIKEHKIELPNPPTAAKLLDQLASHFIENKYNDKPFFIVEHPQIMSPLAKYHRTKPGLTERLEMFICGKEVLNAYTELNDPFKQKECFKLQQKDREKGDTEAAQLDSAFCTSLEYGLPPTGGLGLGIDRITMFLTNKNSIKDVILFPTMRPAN
UniProt P9WNZ1, whole entry: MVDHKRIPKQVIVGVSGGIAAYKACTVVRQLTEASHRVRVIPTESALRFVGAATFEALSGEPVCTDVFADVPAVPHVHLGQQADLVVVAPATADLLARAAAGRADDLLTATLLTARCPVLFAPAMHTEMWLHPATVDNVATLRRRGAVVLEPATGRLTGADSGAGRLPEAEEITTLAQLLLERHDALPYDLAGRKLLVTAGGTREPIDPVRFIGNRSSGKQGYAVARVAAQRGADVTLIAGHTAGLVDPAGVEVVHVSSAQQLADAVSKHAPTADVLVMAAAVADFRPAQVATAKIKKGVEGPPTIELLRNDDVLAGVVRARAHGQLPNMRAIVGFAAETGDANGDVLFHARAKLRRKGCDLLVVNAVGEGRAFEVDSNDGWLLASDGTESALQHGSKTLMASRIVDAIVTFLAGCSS

MtTrpRS: 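Tryptophan-tRNA ligase, Mycobacterium tuberculosis (UniProt P9WFT3). Enzyme assay of tryptophanyl-tRNA synthetase; the read-out is not stated. Compounds at 10 µM. Direction is not recorded; retested compounds ran higher, which suggests that high means inhibition. About 65,000 compounds were tested under these conditions; 0.098% (about 64) showed 50% or more at least once.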
ClpP1P2: 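Protease assay of ClpP1P2, read by the AMC dye that it sets free. Target: ClpP1P2, Mycobacterium tuberculosis (UniProt P9WPC5 and UniProt P9WPC3). Concentration: 50 µM. Higher reads as stronger inhibition, judged from the few compounds that gave an IC50. Most other retested compounds had strongly negative values. About 69,000 compounds were tested under these conditions; 0.015% (about 10) showed 50% or more at least once.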
Leishmania in macrophages: 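Cell assay of Leishmania donovani living inside macrophages; the read-out is not stated. Concentration: 30 µM. Direction is inferred from retests: higher values go with stronger inhibition. Of about 69,000 compounds tested this way, about 1,000 (1.5%) reached 50% or more in at least one test.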
PfKRS1: 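Lysine-tRNA ligase, Plasmodium falciparum 3D7 (UniProt Q8IDJ8). Enzyme assay of the cytosolic lysyl-tRNA synthetase in 384-well plates, read by luminescence. Tested at 30 µM. Direction is inferred from only a few compounds that gave an IC50; most scored high, so higher reads as stronger inhibition. About 69,000 compounds were tested under these conditions; 0.071% (about 49) showed 50% or more at least once.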
CoaBC: 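Coenzyme A biosynthesis protein CoaBC, Mycobacterium tuberculosis (UniProt P9WNZ1). Enzyme assay of CoaBC with a phosphate dye (Biomol Green) read at 650 nm. Tested at 30 µM. Direction is inferred from only a few compounds that gave an IC50; most scored high, so higher reads as stronger inhibition. Most strong results did not repeat in a second test. Size under these conditions: about 67,000 compounds, about 40 of them at 50% or above in at least one test.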

Each number is a percent effect as filed. How 0% and 100% were set is not recorded. Most values in the screen are low, and negative values occur. The compounds are a random part of those screened. Two or more numbers in one place are separate tests of the same structure; such repeats can differ widely. A dash means the value is not listed here; it may have been measured.

compound	MtTrpRS	ClpP1P2	Leishmania in macrophages	PfKRS1	CoaBC
COc1ncccc1C(=O)N1CCn2c(COCC3CC3)cnc2C1C (stereo not drawn)	-1.055	-2.353	28.01	-1.211	0.3861
CCOc1ccccc1OC1CCN(C(=O)c2ccc(=O)[nH]n2)CC1	-3.302	6.358	11.52	-1.298	-4.521
O=C(c1cccs1)N1CC(C(=O)N2CCCC2)C2(CCOCC2)C1 (stereo not drawn)	-4.182	-15.3	12.49	7.895	0
O=C(NC1CC1)c1ccnc(N2CCOC(c3ccc(Cl)cc3)C2)c1 (stereo not drawn)	-2.506	-7.735	-5.585	-0.2224	7.969
COc1ccccc1C(=O)N(C)Cc1nnc2ccccn12	-1.129	-42.39	17.96	0.9483	1.305
Cc1ccc(NC(=O)N2CCN(Cc3noc(C4CC4)n3)CC2)cc1	1.657	4.276	-3.365	-6.799	4.178
CCCS(=O)(=O)N1CCn2cc(CNc3ccccn3)nc2C1	-1.022	-9.398	-	6.192	3.226
Cc1noc(CSc2ccc(C(F)(F)F)cn2)n1	-0.7009	5.014	27.73	7.392	0.9494
Cc1scc(C(=O)N2CCC3(CCCN(C)C3=O)C2)c1-c1ccccc1 (stereo not drawn)	-0.387	-17.57	31.79	-1.295	4.051
O=C(CCO)N1CCC2(CCc3ccc(-c4ccoc4)cc32)CC1	0.1079	-8.467	14.26	3.631	-
Cc1cc(-c2cncnc2)nc(C2CCCN2S(C)(=O)=O)n1 (stereo not drawn)	-3.872	-14.09	-4.181	3.269	2.613
Cc1cc(C)n(C2CCN(C(=O)CN3C(=O)CSc4ccccc43)C2)n1 (stereo not drawn)	-1.282	8.323	-37.59	5.688	-2.457
O=C(Cc1ccccc1F)N1CCN(C(=O)c2cccc(F)c2)CC1	5.403	10.35	9.706	-5.328	1.484
O=C(O)C(F)(F)F.O=C(O)C(F)(F)F.c1cc(CN2CCc3ncnc(C4CCOC4)c3CC2)ccn1 (stereo not drawn)	-	-	5.783	-	-
CCOc1cc(F)ccc1NC(=O)N(C)Cc1cnn(C)c1	-1.412	-26.08	-9.395	0.12	-3.609
Cn1cc(C2=NOC(C(=O)NC3(c4ccccc4F)CCCC3)C2)cn1 (stereo not drawn)	7.552	-19.93	-14.92	0.4129	1.914
CN1C(=O)CC(C(=O)O)C12CCN(Cc1ccc(Cl)c(Cl)c1)CC2 (stereo not drawn)	-7.743	-11.56	27.43	-1.111	13.29
CN(CC1(CO)CCC1)c1nc2c(c(=O)[nH]1)Cc1ccccc1OC2	1.232	-12.58	19.06	1.41	-0.1229
CCc1ncc(CN(C)C(=O)Nc2cccnc2N2CCCC2)s1	1.267	5.238	28.72	9.551	7.846
O=C1CCN(Cc2cnc3c(-c4ccccc4)cnn3c2)CCN1	-4.351	-5.493	9.976	2.066	11.11
CCCN1CCC(Cc2noc(-c3cccnc3OC)n2)CC1	0	-6.855	57.42	1.056	5.051
CC(C)Cc1cc(NC(=O)c2ccccc2)n(C)n1	-6.719	5.981	18.49	1.826	1.419
CN(C)S(=O)(=O)N1CC[C@]2(C[C@@H](Oc3ncccc3F)CO2)C1.O=C(O)C(F)(F)F	-	-	11.6	-	-
O=C(c1cscn1)N1CCO[C@H]2[C@@H](Oc3ccccn3)CC[C@@H]21	-4.473	-5.472	-	0.09872	-0.1236
CCCN(CCOC)C(=O)c1cc(Cn2c(C)nc3ccccc32)[nH]n1	-1.566	-10.01	37.64	4.471	-0.9877
Cn1nccc1CNS(=O)(=O)c1cc(F)ccc1Br	-6.295	-8.35	49.19	1.45	7.143
COCCN(Cc1ccc(F)cc1Cl)C(=O)c1cccc[n+]1[O-]	-0.7583	-1.17	5.349	-2.216	2.11
CC(O)CCN(C)C(=O)Nc1cc(F)cc(Br)c1 (stereo not drawn)	-9.149	-15.75	4.009	4.31	-2.992
O=C(O)C(F)(F)F.O=C(O)C(F)(F)F.c1ccc(CN2CCc3ncnc(-c4ccncc4)c3CC2)nc1	-	-	-5.145	-	-
COC(=O)CC1CSCCN1C(=O)CCc1c(C)nn(C)c1C (stereo not drawn)	1.361	-17.32	21.38	2.769	6.164
C[C@H]1C[C@@H]2CCN(Cc3ccco3)C[C@H]2O1	0.2292	-7.004	-	5.43	1.42
CNC(=O)c1ccc2c(c1)C1(CCN(CC3CC3)CC1)C(=O)N2.O=C(O)C(F)(F)F	-	-	-0.3632	-	-
Cn1c(N)c2c(=O)n(C)c(-c3ccc(Cl)cc3Cl)cc2c(C#N)c1=O	6.607	-168.5	2.891	2.721	2.013
Cc1ccc(CN2CCC3(CCN(S(=O)(=O)c4ccccc4)C3)C2)o1 (stereo not drawn)	0.7276	-20.31	25.02	5.025	5.089
COCCCN1CCCC2(CCN(S(=O)(=O)c3cccnc3)C2)C1=O (stereo not drawn)	5.078	10.92	39.66	1.62	-0.9153
CNc1cc(-c2ccccc2CN)c2cc[nH]c2n1	10.2	22.78	31.34	6.837	48.73 & 14.81
CS(=O)(=O)c1ccc(C(=O)NCc2nc3cc(F)ccc3[nH]2)cc1	1.728	7.741	2.976	-0.6499	-3.155
Cc1ccc(CN2CCc3onc(C(=O)NC(C)C)c3C2)o1.O=C(O)C(F)(F)F	-	-	-4.989	-	-
COc1ccc(-c2nc(CN3CC(n4nc(C)cc4C)C3)no2)cc1	-0.2486	-18.29	15.07	6.303	-2.727
[H][C@@]12CS(=O)(=O)C[C@]1([H])N(C(=O)c1cc(C)n[nH]1)CCN2CC=C(C)C	-	-	7.449	-	-
c1cnc(N2CCOCC3(CCCN(Cc4cc[nH]n4)C3)C2)nc1 (stereo not drawn)	-1.622	-10.5	-	3.777	-13.33
[H][C@@]12CC(=O)N(CC)[C@@]1([H])CCN2S(=O)(=O)c1ccccc1	-	-	-3.3	-	-
COc1ccccc1C1CC(=O)Nc2c1c(=O)[nH]n2C1CCCC1 (stereo not drawn)	1.232	-3.131	12.04	5.391	8.763 & 27.36
CN(C)C[C@H]1C[C@@H]2CN(Cc3ccco3)C[C@@H]2O1	-2.471	-0.02351	-	-1.817	2.188
Cc1[nH]ncc1CCCNC(=O)Nc1ccc2c(c1)OC1(CCCC1)O2	1.146	-0.2704	27.36	4.235	4.808
O=C(CCc1ccc(Br)cc1)NCCc1nnc[nH]1	2.621	-6.869	14.22	4.234	9.25
COCCN1CCN(S(=O)(=O)c2ccccc2)Cc2cccnc21	-	-12.12	-	2.493	4.634
CS(=O)(=O)N1CCOC2(CCN(c3nccs3)CC2)c2ccccc21	4.722	13.8	-22.64 & 10.84	-1.408	-0.2114
O=C(CCCn1cncn1)N1CCC2(CC1)[C@H](O)C[C@@H]2OCCO	-0.07468	-1.95	7.769	-1.694	0.9828

Once more, the final 3:

compound,MtTrpRS,ClpP1P2,Leishmania in macrophages,PfKRS1,CoaBC
COCCN1CCN(S(=O)(=O)c2ccccc2)Cc2cccnc21,-,-12.12,-,2.493,4.634
CS(=O)(=O)N1CCOC2(CCN(c3nccs3)CC2)c2ccccc21,4.722,13.8,-22.64 & 10.84,-1.408,-0.2114
O=C(CCCn1cncn1)N1CCC2(CC1)[C@H](O)C[C@@H]2OCCO,-0.07468,-1.95,7.769,-1.694,0.9828

The values are deposited in ChEMBL (CHEMBL3988442, “University of Dundee, Small-Polar-MMV Screening Library” (2021)).